The results in this text go back to publication PMC12482648, “G-quadruplex structural motifs modulate protein–RNA interactions within the transcriptome”.

For at least one entry, the source does not settle the construct or the ends of the probe. Weaker means in comparison with the reference protein, sequence or condition of that experiment. Where a protein sequence is shown, tags need not be part of it.

In this data set the target is T1, FUS C-terminal RNA-binding module (His6-FUS) (UniProt P35637).
T1 sequence (looked up): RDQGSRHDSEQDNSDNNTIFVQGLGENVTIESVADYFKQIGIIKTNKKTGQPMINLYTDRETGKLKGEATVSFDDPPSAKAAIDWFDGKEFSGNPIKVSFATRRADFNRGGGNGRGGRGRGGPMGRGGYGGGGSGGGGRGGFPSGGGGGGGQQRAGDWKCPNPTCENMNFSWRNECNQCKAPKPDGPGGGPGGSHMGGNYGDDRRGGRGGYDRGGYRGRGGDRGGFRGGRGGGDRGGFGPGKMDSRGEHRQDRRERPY
As to the kind of experiment: EMSA. The settings on record: 150 mM LiCl (no K+), complex seen, less intense than KCl, supershift with anti-His; EMSA: 1 uM RNA, 0/0.1/1/5 uM His6-FUS, 50 mM HEPES-KOH (or HEPES-LiOH) pH 7.4, 150 mM KCl (or LiCl), 200 ng BSA, 2 mM EDTA, 2 mM DTT, 5% glycerol, 30 min 30 C; recombinant protein; residues 269-526; protein details: His6 (pET28a-TEV); label: none (SYBR Gold stain). For orientation: In EMSA bound probe runs differently from free probe, usually more slowly.
“AGGGGGAGGGUGUGGGGGCAGUGAGGGU [28RPL23A WT]”: the binding result is “binds more weakly”.

UUAGGGUUAGGGUUAGGGUUAGGG [TERRA WT]: the binding result is given as “binds more weakly”.

In the case of UGGUGCGCGGGUCCCGGGGAGGGGA [25COPS9 WT], the binding result is “binds more weakly”.
